Consider three molecules from publication PMC2710002, “KCNE1 and KCNE3 β-Subunits Regulate Membrane Surface Expression of Kv12.2 K^+ Channels In Vitro and Form a Tripartite Complex In Vivo” (PLoS ONE, 2009).

By UniProt entry, the sequences of proteins in these tests, tags left out.
UniProt P23299: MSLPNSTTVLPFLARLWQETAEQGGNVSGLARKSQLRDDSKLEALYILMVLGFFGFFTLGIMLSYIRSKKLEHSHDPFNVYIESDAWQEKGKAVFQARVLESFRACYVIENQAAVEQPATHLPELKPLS

These are yes or no findings as the source states them, for the method shown. Binding seen in cells or lysates may run through a third protein. Some results given as binding are weak or reduced against the parent protein; the word gives no strength.

The target in test [1] is T1, Kv12.2 channel (mouse (endogenous in mouse brain)) (UniProt Q9WVJ0).
T1 sequence: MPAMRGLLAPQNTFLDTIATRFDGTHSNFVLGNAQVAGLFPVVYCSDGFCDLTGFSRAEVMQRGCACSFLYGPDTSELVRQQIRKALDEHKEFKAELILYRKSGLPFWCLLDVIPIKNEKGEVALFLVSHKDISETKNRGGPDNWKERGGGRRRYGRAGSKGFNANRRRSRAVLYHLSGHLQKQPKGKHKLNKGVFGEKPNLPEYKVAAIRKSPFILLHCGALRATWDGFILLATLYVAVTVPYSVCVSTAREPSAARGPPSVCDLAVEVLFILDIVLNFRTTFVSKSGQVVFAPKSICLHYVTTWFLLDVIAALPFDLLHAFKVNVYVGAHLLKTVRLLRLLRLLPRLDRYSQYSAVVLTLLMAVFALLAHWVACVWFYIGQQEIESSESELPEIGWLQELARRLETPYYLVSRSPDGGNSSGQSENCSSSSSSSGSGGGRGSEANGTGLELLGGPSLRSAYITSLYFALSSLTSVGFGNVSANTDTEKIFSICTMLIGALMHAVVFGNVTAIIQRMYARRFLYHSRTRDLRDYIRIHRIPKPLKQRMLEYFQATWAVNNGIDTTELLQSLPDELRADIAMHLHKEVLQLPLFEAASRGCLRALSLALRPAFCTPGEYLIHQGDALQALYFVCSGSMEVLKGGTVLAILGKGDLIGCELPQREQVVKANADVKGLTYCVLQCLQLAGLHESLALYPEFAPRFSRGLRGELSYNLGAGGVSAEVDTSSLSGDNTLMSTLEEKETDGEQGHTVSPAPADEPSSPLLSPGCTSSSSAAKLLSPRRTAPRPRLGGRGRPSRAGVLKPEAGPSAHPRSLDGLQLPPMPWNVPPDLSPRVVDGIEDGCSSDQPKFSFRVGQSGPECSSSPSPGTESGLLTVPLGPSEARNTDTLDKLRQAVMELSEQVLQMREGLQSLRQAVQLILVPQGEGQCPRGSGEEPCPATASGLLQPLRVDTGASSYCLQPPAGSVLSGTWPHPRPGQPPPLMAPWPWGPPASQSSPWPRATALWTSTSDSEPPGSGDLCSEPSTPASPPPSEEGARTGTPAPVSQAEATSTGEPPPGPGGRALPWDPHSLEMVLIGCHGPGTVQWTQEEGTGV
The experiment in a line: co-IP; adult mouse brain membrane pellet solubilised in IP buffer (50 mM Tris-Cl, 20 mM MgCl2, 150 mM NaCl, 0.5% Igepal, pH 7); antibody covalently conjugated to protein A/G sepharose beads, overnight at 4°C; SDS-PAGE and Western blot. On the technique in general: A western blot detects proteins with antibodies after separation by electrophoresis.

Test [2] deals with T1, Kv12.2 channel (mouse (endogenous in mouse brain)). The experiment in a line: co-IP; native conditions, two-step: eluate of the first-round IP (anti-KCNE1 or anti-KCNE3) put on a second-round IP with anti-Kv12.2; 4-16% NativePAGE Bis-Tris gel, blot with anti-KCNE1 or anti-KCNE3.
Test [3] has as its target T2, KCNE3 β-subunit (mouse (endogenous in mouse brain)) (UniProt Q9WTW2).
T2 sequence: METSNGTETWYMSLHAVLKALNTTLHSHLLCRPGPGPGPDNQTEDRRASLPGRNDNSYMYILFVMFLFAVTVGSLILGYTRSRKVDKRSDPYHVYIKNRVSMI
The experiment in a line: co-IP; native conditions, first round: whole mouse brain lysate in NativePAGE sample buffer with 1% digitonin; anti-KCNE1 or anti-KCNE3 on protein A/G sepharose column, overnight at 4°C; 4-16% NativePAGE Bis-Tris gel, blot with anti-Kv12.2.

In test [4] the target is KCNE1 β-subunit (mouse (endogenous in mouse brain)) (UniProt P23299). The test is described as above.
For test [5], the target named is T2, KCNE3 β-subunit (mouse (endogenous in mouse brain)). Description: co-IP; adult mouse brain membrane pellet solubilised in IP buffer (50 mM Tris-Cl, 20 mM MgCl2, 150 mM NaCl, 0.5% Igepal, pH 7); antibody covalently conjugated to protein A/G sepharose beads, overnight at 4°C; SDS-PAGE and Western blot.
In test [6] the target is KCNE1 β-subunit (mouse (endogenous in mouse brain)) (UniProt P23299). Described as above.

“KCNE1 β-subunit (from UniProt P23299 1-129)”: the binding result in test [1] and in test [2] was “binds” each time.

B1: Kv12.2 channel (natural protein, mouse (endogenous in mouse brain), UniProt Q9WVJ0 1-1095, looked up)
chain: MPAMRGLLAPQNTFLDTIATRFDGTHSNFVLGNAQVAGLFPVVYCSDGFCDLTGFSRAEVMQRGCACSFLYGPDTSELVRQQIRKALDEHKEFKAELILYRKSGLPFWCLLDVIPIKNEKGEVALFLVSHKDISETKNRGGPDNWKERGGGRRRYGRAGSKGFNANRRRSRAVLYHLSGHLQKQPKGKHKLNKGVFGEKPNLPEYKVAAIRKSPFILLHCGALRATWDGFILLATLYVAVTVPYSVCVSTAREPSAARGPPSVCDLAVEVLFILDIVLNFRTTFVSKSGQVVFAPKSICLHYVTTWFLLDVIAALPFDLLHAFKVNVYVGAHLLKTVRLLRLLRLLPRLDRYSQYSAVVLTLLMAVFALLAHWVACVWFYIGQQEIESSESELPEIGWLQELARRLETPYYLVSRSPDGGNSSGQSENCSSSSSSSGSGGGRGSEANGTGLELLGGPSLRSAYITSLYFALSSLTSVGFGNVSANTDTEKIFSICTMLIGALMHAVVFGNVTAIIQRMYARRFLYHSRTRDLRDYIRIHRIPKPLKQRMLEYFQATWAVNNGIDTTELLQSLPDELRADIAMHLHKEVLQLPLFEAASRGCLRALSLALRPAFCTPGEYLIHQGDALQALYFVCSGSMEVLKGGTVLAILGKGDLIGCELPQREQVVKANADVKGLTYCVLQCLQLAGLHESLALYPEFAPRFSRGLRGELSYNLGAGGVSAEVDTSSLSGDNTLMSTLEEKETDGEQGHTVSPAPADEPSSPLLSPGCTSSSSAAKLLSPRRTAPRPRLGGRGRPSRAGVLKPEAGPSAHPRSLDGLQLPPMPWNVPPDLSPRVVDGIEDGCSSDQPKFSFRVGQSGPECSSSPSPGTESGLLTVPLGPSEARNTDTLDKLRQAVMELSEQVLQMREGLQSLRQAVQLILVPQGEGQCPRGSGEEPCPATASGLLQPLRVDTGASSYCLQPPAGSVLSGTWPHPRPGQPPPLMAPWPWGPPASQSSPWPRATALWTSTSDSEPPGSGDLCSEPSTPASPPPSEEGARTGTPAPVSQAEATSTGEPPPGPGGRALPWDPHSLEMVLIGCHGPGTVQWTQEEGTGV
notes: Kv12.2 (ELK2, KCNH3) voltage-gated potassium channel alpha subunit, mouse, endogenous in brain; about 120 kDa monomer on a denaturing gel, about 500 kDa complex on a native gel; also called ELK2; KCNH3; source: endogenous, mouse brain membrane lysate (0.5% Igepal) or whole mouse brain lysate (1% digitonin)
Take B1: the binding entry in test [3], in test [4], in test [5] and in test [6] was “binds” in each case.

B2: KCNE3 β-subunit (protein, UniProt Q9WTW2 1-103)
chain: METSNGTETWYMSLHAVLKALNTTLHSHLLCRPGPGPGPDNQTEDRRASLPGRNDNSYMYILFVMFLFAVTVGSLILGYTRSRKVDKRSDPYHVYIKNRVSMI
On to B2, for which the binding entry in test [1] and in test [2] was “binds” each time.
